These are yes or no findings as the source states them, for the method shown. Binding seen in cells or lysates may run through a third protein. Some entries that bind do so weakly or less than the wild type.
Molecular target: mL62-FLAG (mouse) (UniProt Q8R035)
Test: co-sedimentation; 10%-30% sucrose density gradient of digitonin lysates of liver, kidney and heart mitochondria of MitoRibo-Tag mice; 10 mM Tris-HCl pH 7.5, 100 mM KCl, 20 mM MgCl2; fractions analysed by western blot

By UniProt entry, the sequences of proteins in these tests, tags left out. Residues count along the entry.
UniProt Q8R035, residues 30-206: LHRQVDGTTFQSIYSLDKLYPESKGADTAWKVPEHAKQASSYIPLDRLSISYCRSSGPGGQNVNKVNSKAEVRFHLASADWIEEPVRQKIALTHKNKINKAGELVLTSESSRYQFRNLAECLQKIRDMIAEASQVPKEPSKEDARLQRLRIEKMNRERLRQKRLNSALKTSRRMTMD

## bS16m (from UniProt Q9CPX7 35-135)
  binding: binds

B1: mL37 (protein, UniProt Q921S7 30-423)
chain: AYEWGVRSTRKPEPRPLDRVYEIPGLEPITYEGKKHFVPWLARPIFPPWERGWNDPRFHRAAPIHEQTLYKEEPCYIFHQRCRLLEGMKQALWLTKTKLIEGLPKKVLSLVDDPANHIENQEQRVLDIISHARLWHSTEDIPKRETYCPLIVDSLIQLCKSQILKHPSLARRTSAQNCTLATTWNRESLLLQVRGTSSTILSAKDPLPVIASREEVEATRSHVLETFYPISPTIDLQECHVYEVKDDTGFQEGYPYPHPHTLYFLEKANLRPQRFLPEQLRAKMLLFAFANALAQARLLYGNTAKVLEQPIVVQSVGTDGRVFQFLVLQLNTTDLASSEGVKNLVWTDSDQLLYRHFWCRPVIKKKVVVEPVGPVDFQPETFRKFLALYLHGVV
  binding: binds

Source: publication PMC6859486
